Laboratory results from the supplement of paper PMC3682954.
“And” between values parts separate entries of the source, which are not always exact repeats. Equal values may be shown once. Where a name gives a salt, the structure may show the parent alone. ± gives the standard deviation of the averaged measurements. Some of the results follow. Single values are uncertain, as repeats are few or missing.

Tested on: RAW 264.7
Experiment: cell viability (MTT) relative to vehicle control; higher = more viable cells
Details: stimulus: HMGB1 5 ug/ml, 18 h
[1] = compound concentration: 1 ug/ml

Row | Structure (SMILES) | cell viability (compound concentration: 3 uM) | cell viability [1]
1 | CC(=O)NCCCCCC(=O)O | 113% | 
2 | O=c1n(CCCN2CCN(c3cccc(Cl)c3)CC2)nc2ccccn12 | 100 ± 3.6% | 
3 | O=c1n(CCCN2CCN(c3cccc(Cl)c3)CC2)nc2ccccn12 [Trazodone hydrochloride] | 106.97 ± 0.092% | 
4 | C=C[C@H]1CN2CC[C@H]1C[C@H]2[C@H](O)c1ccnc2ccc(OC)cc12 | 99.5% and 110% | 
5 | C=C[C@H]1CN2CC[C@H]1C[C@H]2[C@H](O)c1ccnc2ccc(OC)cc12 [Quinine sulfate] | 101% | 
6 | C=C[C@H]1CN2CC[C@H]1C[C@H]2[C@H](O)c1ccnc2ccc(OC)cc12 [Quinine] |  | 85.2%
7 | CC1(C)S[C@@H]2[C@H](NC(=O)[C@H](N)c3ccccc3)C(=O)N2[C@H]1C(=O)O [Ampicillin] | 91.8% | 
8 | CC1(C)S[C@@H]2[C@H](NC(=O)[C@H](N)c3ccccc3)C(=O)N2[C@H]1C(=O)O [Ampicillin trihydrate] | 85.1% | 
9 | CC1(C)S[C@@H]2[C@H](NC(=O)[C@H](N)c3ccccc3)C(=O)N2[C@H]1C(=O)O | 102% | 
10 | CN(C)C(=O)n1nnnc1Cc1ccc(-c2ccccc2)cc1 | 44.5% | 
11 | CCC(NC(C)C)C(O)c1ccc(O)c2[nH]c(=O)ccc12 (stereo not drawn) [Procaterol] | 105% | 
12 | Oc1ccc(-c2nc(-c3ccc(F)cc3)c(-c3ccncc3)[nH]2)cc1 | 99.7% | 
13 | NC(=O)c1cnccn1 [Pyrazinamide] | 87.8% | 
14 | NC(=O)c1cnccn1 | 99.1% | 
15 | NC(=O)c1cnccn1 [Pyrazinecarboxamide] | 107% | 
16 | CO[C@@H]1[C@H](OC(=O)/C=C/C=C/C=C/C=C/C(=O)O)CC[C@]2(CO2)[C@H]1[C@@]1(C)O[C@@H]1CC=C(C)C [Fumagillin] | 102% | 
17 | Nc1nc(N)c(N=O)c(OCC2CCCCC2)n1 | 120% | 
18 | CCCCC[C@H](O)/C=C/[C@H]1[C@H](O)CC(=O)[C@@H]1C/C=C\CCCC(=O)O [Dinoprostone] | 109% | 
19 | CSc1nc2cc(Cl)c(Oc3cccc(Cl)c3Cl)cc2[nH]1 | 102 ± 6.3% | 
20 | Cc1nc2ccccn2c(=O)c1CCN1CCC(C(=O)c2ccc(F)cc2)CC1 | 102 ± 2.6% | 
21 | Cc1nc2ccccn2c(=O)c1CCN1CCC(C(=O)c2ccc(F)cc2)CC1 [Pirenperone] | 90.9 ± 13% | 
22 | CCC(=O)c1ccc2c(c1)N(CCCN(C)C)c1ccccc1S2 [Propionylpromazine hydrochloride] | 103% | 
23 | N/C(=N\C(=O)c1nc(Cl)c(N)nc1N)NCc1ccccc1 [Benzamil hydrochloride] | 101 ± 12% | 
24 | N/C(=N\C(=O)c1nc(Cl)c(N)nc1N)NCc1ccccc1 [Benzamil] | 109% | 

Row | Structure (SMILES) | cell viability (compound concentration: 3 uM) | cell viability [1]
25 | O=C(CCNNC(=O)c1ccncc1)NCc1ccccc1 | 101 ± 8.5% | 
26 | O=C(CCNNC(=O)c1ccncc1)NCc1ccccc1 [Nialamide] | 105 ± 10% | 
27 | CCCn1c(=O)c2[nH]c(C3CCCC3)nc2n(CCC)c1=O [8-Cyclopentyl-1,3-dipropylxanthine] | 102% | 
28 | COC(=O)C[C@](O)(CCCC(C)(C)O)C(=O)O[C@@H]1C(OC)=C[C@]23CCCN2CCc2cc4c(cc2[C@H]13)OCO4 | 1.33% | 
29 | C/C=C/c1ccc(OC)cc1 | 105% | 
30 | C/C=C/c1ccc(OC)cc1 [Anethole, trans-] | 99.7% | 
31 | CCCN(CCC)CCc1cccc2c1CC(=O)N2 [Ropinirole hydrochloride] | 124% | 
32 | CCCN(CCC)CCc1cccc2c1CC(=O)N2 [Ropinirole HCl] | 108% | 
33 | CCCN(CCC)CCc1cccc2c1CC(=O)N2 | 103% | 
34 | N=C(N)c1ccc(N)cc1 [4-Aminobenzamidine dihydrochloride] | 102% | 
35 | O[C@H]1[C@H](O)[C@@H](O)[C@H](O)[C@@H](O)[C@H]1O | 102% | 
36 | COc1cccc2c1C(=O)c1c(O)c3c(c(O)c1C2=O)C[C@@](O)(C(=O)CO)C[C@@H]3O[C@H]1C[C@H](N)[C@@H](O)[C@H](C)O1 | 2.34 ± 0.86% | 
37 | CC(=O)O[C@H]1C(=O)[C@@]2(C)[C@H]([C@H](OC(=O)c3ccccc3)[C@]3(O)C[C@H](OC(=O)[C@H](O)[C@@H](NC(=O)c4ccccc4)c4ccccc4)C(C)=C1C3(C)C)[C@]1(OC(C)=O)CO[C@@H]1C[C@@H]2O [Paclitaxel] | 53.5% | 
38 | CC(=O)O[C@H]1C(=O)[C@@]2(C)[C@H]([C@H](OC(=O)c3ccccc3)[C@]3(O)C[C@H](OC(=O)[C@H](O)[C@@H](NC(=O)c4ccccc4)c4ccccc4)C(C)=C1C3(C)C)[C@]1(OC(C)=O)CO[C@@H]1C[C@@H]2O [Taxol] | 89.8 ± 26% | 
39 | CC(=O)O[C@H]1C(=O)[C@@]2(C)[C@H]([C@H](OC(=O)c3ccccc3)[C@]3(O)C[C@H](OC(=O)[C@H](O)[C@@H](NC(=O)c4ccccc4)c4ccccc4)C(C)=C1C3(C)C)[C@]1(OC(C)=O)CO[C@@H]1C[C@@H]2O | 91.5 ± 18% | 
40 | Cc1[nH]c(=O)c(C#N)cc1-c1ccc2nccn2c1 [Olprinone hydrochloride] | 107% | 
41 | NC[C@@H](O)c1ccc(O)c(O)c1 [L(-)-Norepinephrine bitartrate] | 111% | 
42 | Nc1nc(Cl)nc2c1ncn2[C@@H]1O[C@H](COP(=O)(O)OP(=O)(O)OP(=O)(O)O)[C@H](O)C1O (stereo partly drawn) [2-Chloroadenosine triphosphate tetrasodium] | 105% | 
43 | C[C@@H]1C[C@H]2[C@@H]3C[C@H](F)C4=CC(=O)C=C[C@]4(C)[C@@]3(Cl)[C@@H](O)C[C@]2(C)[C@H]1C(=O)COC(=O)C(C)(C)C [Clocortolone pivalate] | 74% | 
44 | Cc1c(C)c2c(c(C)c1OC(=O)CCC(=O)O)CC[C@@](C)(CCC[C@H](C)CCC[C@H](C)CCCC(C)C)O2 [(+)-alpha-Tocopherol acid succinate] |  | 104%
45 | Oc1cc2c(cc1O)CN(C(=S)NCCc1ccc(Cl)cc1)CCC2 [Capsazepine] | 106% | 
46 | CCCCCC(=O)O[C@]1(C(C)=O)CC[C@H]2[C@@H]3CCC4=CC(=O)CC[C@]4(C)[C@H]3CC[C@@]21C | 109% | 
47 | CCCCCCC(=O)OC1CC(C)(C)NC(C)(C)C1 [TMPH hydrochloride] | 111% | 
48 | Cc1cc(Cn2cnc3c2C[C@@H](C(=O)O)N(C(=O)C(c2ccccc2)c2ccccc2)C3)ccc1N | 90.1% | 

Reprinted at random: 3 records from the list.
Row | Structure (SMILES) | cell viability (compound concentration: 3 uM) | cell viability [1]
39 | CC(=O)O[C@H]1C(=O)[C@@]2(C)[C@H]([C@H](OC(=O)c3ccccc3)[C@]3(O)C[C@H](OC(=O)[C@H](O)[C@@H](NC(=O)c4ccccc4)c4ccccc4)C(C)=C1C3(C)C)[C@]1(OC(C)=O)CO[C@@H]1C[C@@H]2O | 91.5 ± 18% | 
31 | CCCN(CCC)CCc1cccc2c1CC(=O)N2 [Ropinirole hydrochloride] | 124% | 
35 | O[C@H]1[C@H](O)[C@@H](O)[C@H](O)[C@@H](O)[C@H]1O | 102% | 
